From article PMC4894983 come the findings set out here.

By UniProt entry, the sequences of proteins in these tests, tags left out.
UniProt P56963: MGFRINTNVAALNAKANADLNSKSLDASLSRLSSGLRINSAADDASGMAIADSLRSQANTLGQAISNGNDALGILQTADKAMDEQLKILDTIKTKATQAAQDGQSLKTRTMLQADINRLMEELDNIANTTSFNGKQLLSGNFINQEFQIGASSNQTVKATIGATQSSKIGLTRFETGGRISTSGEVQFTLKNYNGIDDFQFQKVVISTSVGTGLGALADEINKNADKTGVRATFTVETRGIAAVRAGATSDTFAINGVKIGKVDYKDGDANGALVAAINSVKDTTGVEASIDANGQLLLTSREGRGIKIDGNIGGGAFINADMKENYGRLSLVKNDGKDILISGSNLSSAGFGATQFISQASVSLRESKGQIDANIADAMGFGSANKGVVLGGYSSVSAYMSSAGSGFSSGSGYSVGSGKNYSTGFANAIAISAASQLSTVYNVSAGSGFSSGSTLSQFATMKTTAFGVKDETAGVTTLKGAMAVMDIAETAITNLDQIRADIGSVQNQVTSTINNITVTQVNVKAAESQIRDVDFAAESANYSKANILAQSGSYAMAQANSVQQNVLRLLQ

These are yes or no findings as the source states them, for the method shown. Binding seen in cells or lysates may run through a third protein. Some entries that bind do so weakly or less than the wild type. Where a sequence is shown, tags or fusion partners need not be part of it.

Assay [1] has as its target T1, FliW-3xFLAG (flagellar assembly factor FliW, Cj1075, with C-terminal 3xFLAG) (Campylobacter jejuni) (UniProt Q0P9H9).
T1 sequence: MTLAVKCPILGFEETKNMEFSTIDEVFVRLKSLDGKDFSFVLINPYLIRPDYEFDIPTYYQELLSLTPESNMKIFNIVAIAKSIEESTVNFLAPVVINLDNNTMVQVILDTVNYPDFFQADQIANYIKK
Put plainly: co-IP; 3xFLAG-tagged bait precipitated from C. jejuni lysate with anti-FLAG M2 antibody and Protein A-Sepharose; Buffer A (20 mM Tris-HCl pH 8.0, 150 mM KCl, 1 mM MgCl2, 1 mM DTT), 4 °C, five washes; mCherry-tagged partner detected by western blot. Background: A western blot detects proteins with antibodies after separation by electrophoresis.

In assay [2] the target is FlaA-3xFLAG (major flagellin FlaA, Cj1339c, with C-terminal 3xFLAG) (Campylobacter jejuni) (UniProt P56963). Described as above.

B1: CsrA-mCherry (C. jejuni CsrA, Cj1103, with C-terminal mCherry) (protein, UniProt Q0P9F1 1-75)
chain: MLILSRKENESIIIGEGIEIKVVQTGKGYAKIGIEAPKSLMILRKELVQQVKDENLHSVVQNDIKLDDLSKKLIK
As for B1, the binding result in assay [1] was “binds”.

B2: FliW-mCherry (flagellar assembly factor FliW, Cj1075, with C-terminal mCherry) (protein, UniProt Q0P9H9 1-129)
chain: T1 sequence
Turning to B2, in assay [2], the binding entry is on record as “binds”.
